Patent publication EP2832348B1, “METHOD FOR DISSOLVING FLAVONOID COMPOUND, CARBON GLYCOSIDE COMPOUND, OR STILBENE COMPOUND AND METHOD FOR PREPARING AN INJECTION OR A POWDER FOR INJECTION” (Kunming Pharmaceutical Corp., priority 2012, dated 2013)
At least one structure is not confirmed: it was looked up by name or label, or the drawing left a doubt.

Assay: Dissolving the compound with solubilizer in heated, vacuum-stirred water for injection under nitrogen or argon gas (preparation tank)
Type: physicochemical
Experimental: In view of this, the present invention provides a method for dissolving a carbon glycoside compound or a stilbene compound, characterized in that the method comprises the following steps: • heating water for injection to 80-98 °C, followed by stirring under vacuum condition at 30-80 °C, and then adding the carbon glycoside compound or the stilbene compound along with a solubilizer under the protection of nitrogen gas or argon gas to obtain a solution of said compounds; • wherein the solubilizer is one or a mixture of two or more of gastrodin, water-soluble cyclodextrin and ethanol, and wherein the water-soluble cyclodextrin is one or a mixture of two or more of methyl-β-cyclodextrin, thioether-β-cyclodextrin and sulfobutyl ether-β-cyclodextrin; and • wherein the mass ratio of the carbon glycoside compound or the stilbene compound to the solubilizer is 1:1-20.
Disclosed is a method for dissolving a flavonoid compound, a carbon glycoside compound or a stilbene compound, including: • mixing the flavonoid compound, the carbon glycoside compound or the stilbene compound with a solubilizer to obtain a reactant; and • heating water for injection to 80-98 °C, followed by stirring under vacuum conditions at 30-80 °C, and then adding the reactant under the protection of nitrogen gas or argon gas to obtain a solution of the reactant.
Considering the sensitivity to heat or light of the flavonoid compound, the carbon glycoside compound or the stilbene compound, a method is provided by heating water for injection to 80-98 °C to remove dissolved oxygen and other gases in water, which reduces the surface tension of water, increases the contact area of water with the flavonoid compound, the carbon glycoside compound or the stilbene compound, thus increasing the dissolution speed. Meanwhile, pre-heating the water for injection can effectively avoid degradation of the flavonoid compound, the carbon glycoside compound or the stilbene compound due to exposure to the dissolved oxygen, to eliminate unstable factors of the flavonoid compound, the carbon glycoside compound or the stilbene compound. The vacuum conditions can achieve further deoxygenation, facilitating the dissolution of the flavonoid compound, the carbon glycoside compound or the stilbene compound in water. Nitrogen gas or argon gas provides an inert atmosphere, which further reduces the surface tension of the materials, increases the contact area of the flavonoid compound, the carbon glycoside compound or the stilbene compound with water, and increases the dissolution speed.

Row | SMILES | dissolved in (time) (Example 17: 10 g with Gastrodin 100 g, Sodium bicarbonate 2 g in 1000 ml, water heated to 95 °C, kept at 80 °C, vacuum stirring 10 minutes, nitrogen gas) | dissolved in (time) (Example 18: 25 g with Gastrodin 100 g, Hydropropyl-β-cyclodextrin 50 g, Sodium bicarbonate 1 g in 1000 ml, water heated to 95 °C, kept at 80 °C, vacuum stirring 10 minutes, argon gas) | dissolved in (time) (Example 27: 5 g with Gastrodin 100 g, Disodium edetate 0.1 g in 1000 ml, water heated to 95 °C, kept at 80 °C, vacuum stirring 10 minutes, nitrogen gas) | dissolved in (time) (Example 29: 5 g with Gastrodin 100 g, Disodium edetate 0.1 g in 1000 ml, water heated to 95 °C, kept at 80 °C, vacuum stirring 10 minutes, nitrogen gas) | dissolved in (time) (Example 31: 5 g with Gastrodin 100 g, Disodium edetate 0.1 g in 1000 ml, water heated to 95 °C, kept at 80 °C, vacuum stirring 10 minutes, nitrogen gas) | dissolved in (time) (Example 32: 2.0 g with Hydroxypropyl-β-cyclodextrin 200 g in 1000 ml, water heated to 95 °C, kept at 80 °C, vacuum stirring 10 minutes, argon gas) | dissolved in (time) (Example 33: 2.0 g with Ethanol 100 ml in 1000 ml, water heated to 95 °C, kept at 40 °C, vacuum stirring 10 minutes, argon gas) | dissolved in (time) (Example 34: 2.0 g with Ethanol 100 ml in 1000 ml, water and ethanol heated to 80 °C, added under stirring, no vacuum or inert gas) | dissolved in (time) (Example 40: 25 g with Gastrodin 80 g, Thioether-β-cyclodextrin 30 g in 1000 ml, water heated to 90 °C, kept at 80 °C, vacuum stirring 20 minutes, nitrogen gas) | dissolved in (time) (Example 45: 50 g with Gastrodin 100 g, Sulfobutyl ether-β-cyclodextrin 30 g in 1000 ml, water heated to 95 °C, kept at 80 °C, vacuum stirring 10 minutes, nitrogen gas) | dissolved in (time) (Example 53: 10 g with Sulfobutyl ether-β-cyclodextrin 30 g in 1000 ml, water heated to 95 °C, kept at 80 °C, vacuum stirring 10 minutes, nitrogen gas) | dissolved in (time) (Example 62: 5 g with Gastrodin 100 g in 1000 ml, water heated to 95 °C, kept at 80 °C, vacuum stirring 10 minutes, nitrogen gas)
1 | O=c1c2cc(O)c(O)cc2oc2cc(O)c([C@@H]3O[C@H](CO)[C@@H](O)[C@H](O)[C@H]3O)c(O)c12 [Mangiferin] | about 10 minutes | about 10 minutes | about 10 minutes | about 10 minutes | about 10 minutes | about 5 minutes | about 1 minute | about 30 minutes |  |  |  | 
2 | Oc1cc(O)cc(/C=C/c2ccc(O)c(O)c2)c1 [Piceatannol] |  |  |  |  |  |  |  |  | about 5 minutes | about 5 minutes | about 5 minutes | about 5 minutes
